The experiment concerns the target PD-L1 (antigen of the scFv screening) (UniProt Q9NZQ7). Put plainly: screening of scFv against PD-L1 (method not described).

The chains behind the UniProt entries cited, without tags or fusion partners.
UniProt Q9NZQ7: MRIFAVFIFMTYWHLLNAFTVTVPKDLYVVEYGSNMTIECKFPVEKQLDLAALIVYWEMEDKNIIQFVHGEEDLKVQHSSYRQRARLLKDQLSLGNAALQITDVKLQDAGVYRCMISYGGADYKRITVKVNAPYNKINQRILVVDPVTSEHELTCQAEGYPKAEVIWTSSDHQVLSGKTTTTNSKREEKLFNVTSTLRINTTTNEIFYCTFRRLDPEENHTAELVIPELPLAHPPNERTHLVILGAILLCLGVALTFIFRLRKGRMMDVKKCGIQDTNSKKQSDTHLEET

Results are given in words; binding and its absence hold for the method and conditions named. Some binding calls cover weakened binding; strength is not graded here.

The values that follow come from patent CN114853902A.

B1: PD-L1 scFv抗体 (SEQ ID No.1) (scFv)
scFv: EVKLQESGPSLVRPGASVKISCKASAYSFTSYWMHWVKQRPGQGLDWIGMIDPSDSEARLNQKFKDKATLTVDKSSSTTYIHLSSPTSEDSAVYYCARSYGYDGDYYLDVWGAGTTVTVSSGGGSGGGSGGGSGGGSDIVMTQSPSSLSASLGGKVTITCKASQDINKYIAWYQHKPGKGPRLLIQYTSTLQPGIPSRFSGSGSGRDYSFSISNLEPEDIATYYCLQYDYLRTFGGGTKLEIK
In the case of B1, the binding entry is listed as “binds”.
